Assay results as given in paper PMC11128890.
Results are given in words; binding and its absence hold for the method and conditions named.

Sequences of proteins named here, by UniProt entry; tags and fusion partners are left off. A change or cut given only in a name is not applied to a line headed by its entry.
UniProt P06756: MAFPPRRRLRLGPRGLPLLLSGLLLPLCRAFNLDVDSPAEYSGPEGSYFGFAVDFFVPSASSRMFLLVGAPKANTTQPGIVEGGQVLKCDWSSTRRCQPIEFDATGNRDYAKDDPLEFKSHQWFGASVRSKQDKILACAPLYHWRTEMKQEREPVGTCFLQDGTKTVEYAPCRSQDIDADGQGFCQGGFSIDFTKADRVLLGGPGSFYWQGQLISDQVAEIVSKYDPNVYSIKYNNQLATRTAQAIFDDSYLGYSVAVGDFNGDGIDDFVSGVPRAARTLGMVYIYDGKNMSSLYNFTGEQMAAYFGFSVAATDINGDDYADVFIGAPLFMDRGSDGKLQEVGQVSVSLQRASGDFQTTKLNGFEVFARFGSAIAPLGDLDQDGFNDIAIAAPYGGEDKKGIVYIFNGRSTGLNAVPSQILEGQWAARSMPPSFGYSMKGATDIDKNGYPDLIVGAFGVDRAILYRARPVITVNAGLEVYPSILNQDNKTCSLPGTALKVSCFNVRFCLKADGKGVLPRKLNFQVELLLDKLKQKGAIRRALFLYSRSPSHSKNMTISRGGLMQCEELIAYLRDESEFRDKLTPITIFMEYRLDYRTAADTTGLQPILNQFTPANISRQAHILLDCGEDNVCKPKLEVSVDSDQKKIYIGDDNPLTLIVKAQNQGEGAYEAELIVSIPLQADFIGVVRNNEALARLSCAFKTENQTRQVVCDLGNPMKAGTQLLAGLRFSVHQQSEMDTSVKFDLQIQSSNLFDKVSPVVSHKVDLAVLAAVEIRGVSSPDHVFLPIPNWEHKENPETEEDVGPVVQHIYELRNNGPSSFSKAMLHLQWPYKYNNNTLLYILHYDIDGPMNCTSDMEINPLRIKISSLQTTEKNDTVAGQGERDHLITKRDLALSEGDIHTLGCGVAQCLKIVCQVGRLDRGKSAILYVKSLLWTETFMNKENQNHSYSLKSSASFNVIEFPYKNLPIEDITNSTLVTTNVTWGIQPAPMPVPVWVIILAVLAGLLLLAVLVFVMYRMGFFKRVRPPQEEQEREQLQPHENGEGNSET

Legend:
[1] = target: VEGF165 heparin-binding domain (HBD), wild type (human); assay: ELISA; as a1, but the coated HBD was heat-treated; both purified
[2] = target: VEGF165 N-terminal domain (NTD) (human); assay: ELISA; HBD, NTD or HBD mutants coated on 96-well plates, blocked with BSA; soluble αvβ3 (1 μg/mL) in HEPES-Tyrode buffer + 1 mM MnCl2, 1 h room temperature; bound αvβ3 detected with anti-β3 mAb AV10; binding to HBD inhibited by mAb 7E3 and cation-dependent; both purified

Substance: recombinant soluble integrin αvβ3 (from UniProt P06756 31-987; P05106 27-718) (complex)
- binding [1]: no binding (condition: heat treatment of the HBD)
- binding [2]: no binding (tested: soluble αvβ3 1 μg/mL)
